The source gives many values for each of these; only a part stands here.
System: Escherichia coli
Assay: minimum inhibitory concentration (MIC)
Procedure: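 Broth microdilution MIC (Sensititre BOPO7F bovine plate, CLSI methods) of 19 antimicrobials against field isolates of P. multocida, M. haemolytica, H. somni (deep nasopharyngeal swabs) and E. coli, Enterococcus spp. (rectal swabs) from weaned dairy heifers. Incubation 16-24 h at 35 C. MIC is the lowest concentration preventing visible growth. Values with <= or > lie at the tested range limits. Trimethoprim-sulfamethoxazole is given as the trimethoprim component of a 1:19 mixture.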

COc1cc(NS(=O)(=O)c2ccc(N)cc2)nc(OC)n1 [sulfadimethoxine]
Conditions | minimum inhibitory concentration [µg/mL]
isolate (source animal id): 1 | ≤ 256
isolate (source animal id): 2 | > 256
isolate (source animal id): 3 | ≤ 256
isolate (source animal id): 4 | ≤ 256
isolate (source animal id): 5 | > 256
isolate (source animal id): 6 | > 256
isolate (source animal id): 7 | > 256
isolate (source animal id): 17 | > 256
isolate (source animal id): 18 | > 256
isolate (source animal id): 19 | ≤ 256
isolate (source animal id): 20 | > 256
isolate (source animal id): 21 | ≤ 256
isolate (source animal id): 22 | ≤ 256
isolate (source animal id): 23 | ≤ 256
isolate (source animal id): 24 | ≤ 256
isolate (source animal id): 25 | > 256
isolate (source animal id): 26 | ≤ 256
isolate (source animal id): 27 | > 256
isolate (source animal id): 28 | ≤ 256
isolate (source animal id): 29 | > 256
isolate (source animal id): 30 | > 256
isolate (source animal id): 31 | > 256
isolate (source animal id): 32 | > 256
isolate (source animal id): 33 | > 256
isolate (source animal id): 34 | > 256
isolate (source animal id): 35 | > 256
isolate (source animal id): 36 | > 256
isolate (source animal id): 37 | > 256
isolate (source animal id): 38 | > 256
isolate (source animal id): 39 | > 256
isolate (source animal id): 40 | > 256
isolate (source animal id): 41 | > 256
isolate (source animal id): 42 | > 256
isolate (source animal id): 43 | > 256
isolate (source animal id): 44 | ≤ 256
isolate (source animal id): 45 | > 256
isolate (source animal id): 46 | > 256
isolate (source animal id): 47 | > 256
isolate (source animal id): 48 | > 256
isolate (source animal id): 49 | > 256
isolate (source animal id): 50 | > 256
isolate (source animal id): 51 | > 256
isolate (source animal id): 52 | ≤ 256
isolate (source animal id): 53 | > 256
isolate (source animal id): 54 | ≤ 256
isolate (source animal id): 55 | > 256
isolate (source animal id): 56 | ≤ 256
isolate (source animal id): 57 | > 256
isolate (source animal id): 58 | > 256
isolate (source animal id): 59 | > 256
isolate (source animal id): 60 | > 256
isolate (source animal id): 61 | > 256
isolate (source animal id): 62 | > 256
isolate (source animal id): 63 | > 256
isolate (source animal id): 64 | > 256
isolate (source animal id): 65 | > 256
isolate (source animal id): 66 | > 256
isolate (source animal id): 67 | > 256
isolate (source animal id): 68 | > 256
isolate (source animal id): 69 | > 256
isolate (source animal id): 70 | > 256
isolate (source animal id): 71 | > 256
isolate (source animal id): 72 | > 256
isolate (source animal id): 73 | ≤ 256
isolate (source animal id): 74 | > 256
isolate (source animal id): 75 | > 256
isolate (source animal id): 76 | > 256
isolate (source animal id): 77 | > 256
isolate (source animal id): 78 | > 256
isolate (source animal id): 79 | > 256
isolate (source animal id): 80 | ≤ 256
isolate (source animal id): 81 | > 256
isolate (source animal id): 82 | > 256
isolate (source animal id): 83 | > 256
isolate (source animal id): 84 | > 256
isolate (source animal id): 85 | ≤ 256
isolate (source animal id): 86 | > 256
isolate (source animal id): 87 | > 256
isolate (source animal id): 88 | > 256
isolate (source animal id): 89 | ≤ 256
isolate (source animal id): 90 | > 256
isolate (source animal id): 91 | > 256
isolate (source animal id): 92 | > 256
isolate (source animal id): 93 | > 256
isolate (source animal id): 94 | > 256
isolate (source animal id): 95 | > 256
isolate (source animal id): 96 | > 256
isolate (source animal id): 97 | > 256
isolate (source animal id): 189 | > 256
isolate (source animal id): 190 | > 256
isolate (source animal id): 191 | ≤ 256
isolate (source animal id): 192 | > 256
isolate (source animal id): 193 | > 256
isolate (source animal id): 194 | ≤ 256
isolate (source animal id): 195 | ≤ 256
isolate (source animal id): 196 | > 256
isolate (source animal id): 197 | > 256
isolate (source animal id): 198 | > 256
isolate (source animal id): 199 | > 256
isolate (source animal id): 200 | ≤ 256
isolate (source animal id): 201 | > 256
isolate (source animal id): 202 | ≤ 256
isolate (source animal id): 203 | > 256
isolate (source animal id): 204 | ≤ 256
isolate (source animal id): 205 | > 256
isolate (source animal id): 206 | ≤ 256
isolate (source animal id): 207 | > 256
isolate (source animal id): 208 | > 256
isolate (source animal id): 209 | ≤ 256
isolate (source animal id): 210 | > 256
isolate (source animal id): 211 | > 256
isolate (source animal id): 212 | > 256
isolate (source animal id): 213 | > 256
isolate (source animal id): 214 | > 256
isolate (source animal id): 215 | ≤ 256
isolate (source animal id): 216 | > 256
isolate (source animal id): 217 | ≤ 256
isolate (source animal id): 218 | ≤ 256
isolate (source animal id): 219 | ≤ 256
isolate (source animal id): 220 | > 256
isolate (source animal id): 221 | ≤ 256
isolate (source animal id): 222 | ≤ 256
isolate (source animal id): 223 | > 256
isolate (source animal id): 224 | > 256
isolate (source animal id): 225 | > 256
isolate (source animal id): 226 | > 256
isolate (source animal id): 227 | > 256
isolate (source animal id): 228 | > 256
isolate (source animal id): 229 | > 256
isolate (source animal id): 230 | > 256
isolate (source animal id): 231 | ≤ 256
isolate (source animal id): 232 | > 256
isolate (source animal id): 233 | > 256
isolate (source animal id): 234 | > 256
isolate (source animal id): 235 | > 256
isolate (source animal id): 236 | > 256
isolate (source animal id): 237 | > 256
isolate (source animal id): 238 | > 256
isolate (source animal id): 239 | ≤ 256
isolate (source animal id): 240 | > 256
isolate (source animal id): 241 | > 256
isolate (source animal id): 242 | ≤ 256
isolate (source animal id): 243 | > 256
isolate (source animal id): 244 | ≤ 256
isolate (source animal id): 245 | > 256
isolate (source animal id): 246 | > 256
isolate (source animal id): 247 | > 256
isolate (source animal id): 248 | > 256
isolate (source animal id): 249 | ≤ 256
isolate (source animal id): 250 | > 256
isolate (source animal id): 251 | > 256
isolate (source animal id): 252 | > 256
isolate (source animal id): 253 | > 256
isolate (source animal id): 254 | > 256
isolate (source animal id): 255 | > 256
isolate (source animal id): 256 | > 256
isolate (source animal id): 257 | > 256
isolate (source animal id): 258 | ≤ 256
isolate (source animal id): 259 | > 256
isolate (source animal id): 260 | > 256
isolate (source animal id): 261 | > 256
isolate (source animal id): 262 | > 256
isolate (source animal id): 263 | > 256
isolate (source animal id): 264 | ≤ 256
isolate (source animal id): 265 | > 256
isolate (source animal id): 266 | ≤ 256
isolate (source animal id): 267 | > 256
isolate (source animal id): 268 | ≤ 256
isolate (source animal id): 269 | > 256
isolate (source animal id): 270 | > 256
isolate (source animal id): 271 | > 256
isolate (source animal id): 272 | ≤ 256
isolate (source animal id): 273 | > 256
isolate (source animal id): 274 | > 256
isolate (source animal id): 275 | > 256
isolate (source animal id): 276 | > 256
isolate (source animal id): 277 | > 256
isolate (source animal id): 278 | ≤ 256
isolate (source animal id): 279 | > 256
isolate (source animal id): 280 | > 256
isolate (source animal id): 281 | > 256
isolate (source animal id): 282 | ≤ 256
isolate (source animal id): 283 | ≤ 256
isolate (source animal id): 284 | > 256
isolate (source animal id): 285 | ≤ 256
isolate (source animal id): 286 | > 256
isolate (source animal id): 287 | > 256
isolate (source animal id): 288 | ≤ 256
isolate (source animal id): 289 | ≤ 256
isolate (source animal id): 290 | > 256
isolate (source animal id): 291 | > 256
isolate (source animal id): 292 | > 256
isolate (source animal id): 293 | > 256
isolate (source animal id): 294 | > 256
isolate (source animal id): 295 | > 256
isolate (source animal id): 296 | > 256
isolate (source animal id): 297 | ≤ 256
isolate (source animal id): 298 | > 256
isolate (source animal id): 299 | > 256
isolate (source animal id): 300 | > 256
isolate (source animal id): 301 | > 256
isolate (source animal id): 302 | > 256
isolate (source animal id): 303 | ≤ 256
isolate (source animal id): 304 | > 256
isolate (source animal id): 305 | ≤ 256
isolate (source animal id): 306 | ≤ 256
isolate (source animal id): 307 | ≤ 256
isolate (source animal id): 308 | > 256
isolate (source animal id): 309 | > 256
isolate (source animal id): 310 | ≤ 256
isolate (source animal id): 311 | > 256
isolate (source animal id): 312 | > 256
isolate (source animal id): 313 | > 256
isolate (source animal id): 314 | > 256
isolate (source animal id): 315 | ≤ 256
isolate (source animal id): 316 | > 256
isolate (source animal id): 317 | > 256
isolate (source animal id): 318 | > 256
isolate (source animal id): 319 | > 256
isolate (source animal id): 320 | > 256
isolate (source animal id): 321 | > 256
isolate (source animal id): 322 | > 256
isolate (source animal id): 323 | > 256
isolate (source animal id): 324 | > 256
isolate (source animal id): 325 | > 256
isolate (source animal id): 326 | > 256
isolate (source animal id): 327 | > 256
isolate (source animal id): 328 | ≤ 256
isolate (source animal id): 329 | ≤ 256
isolate (source animal id): 330 | > 256
isolate (source animal id): 331 | > 256
isolate (source animal id): 332 | > 256
isolate (source animal id): 333 | > 256
isolate (source animal id): 334 | > 256
isolate (source animal id): 335 | > 256
isolate (source animal id): 336 | > 256
isolate (source animal id): 337 | > 256
isolate (source animal id): 338 | > 256
isolate (source animal id): 339 | > 256
isolate (source animal id): 340 | > 256
isolate (source animal id): 341 | ≤ 256

Reference: the supplement of paper PMC8612539
